The supplement of paper PMC12819154, “High-throughput peptide-centric local stability assay extends protein–ligand identification to membrane proteins, tissues and bacteria” (Nature Structural & Molecular Biology, 2025)
Some of the results follow. Most values lie at the level of the controls, where differences are scatter.

Chains of the proteins cited; added tags and fusions are not shown. Lines headed by an entry give the natural chain unless they say otherwise; changes in a name come on top.
UniProt Q80Y14: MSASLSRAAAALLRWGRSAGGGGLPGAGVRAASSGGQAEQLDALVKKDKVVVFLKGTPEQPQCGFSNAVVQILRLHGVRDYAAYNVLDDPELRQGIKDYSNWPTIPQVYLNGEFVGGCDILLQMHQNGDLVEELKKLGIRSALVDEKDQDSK
UniProt Q80X71, whole entry: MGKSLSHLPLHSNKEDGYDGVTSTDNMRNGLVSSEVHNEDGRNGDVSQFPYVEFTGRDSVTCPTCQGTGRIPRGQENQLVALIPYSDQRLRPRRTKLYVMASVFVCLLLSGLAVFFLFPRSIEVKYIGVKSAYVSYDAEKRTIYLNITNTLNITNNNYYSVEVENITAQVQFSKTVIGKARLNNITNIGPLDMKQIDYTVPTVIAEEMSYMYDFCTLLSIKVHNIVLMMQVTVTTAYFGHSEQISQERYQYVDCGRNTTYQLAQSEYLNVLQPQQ
UniProt Q80WJ7: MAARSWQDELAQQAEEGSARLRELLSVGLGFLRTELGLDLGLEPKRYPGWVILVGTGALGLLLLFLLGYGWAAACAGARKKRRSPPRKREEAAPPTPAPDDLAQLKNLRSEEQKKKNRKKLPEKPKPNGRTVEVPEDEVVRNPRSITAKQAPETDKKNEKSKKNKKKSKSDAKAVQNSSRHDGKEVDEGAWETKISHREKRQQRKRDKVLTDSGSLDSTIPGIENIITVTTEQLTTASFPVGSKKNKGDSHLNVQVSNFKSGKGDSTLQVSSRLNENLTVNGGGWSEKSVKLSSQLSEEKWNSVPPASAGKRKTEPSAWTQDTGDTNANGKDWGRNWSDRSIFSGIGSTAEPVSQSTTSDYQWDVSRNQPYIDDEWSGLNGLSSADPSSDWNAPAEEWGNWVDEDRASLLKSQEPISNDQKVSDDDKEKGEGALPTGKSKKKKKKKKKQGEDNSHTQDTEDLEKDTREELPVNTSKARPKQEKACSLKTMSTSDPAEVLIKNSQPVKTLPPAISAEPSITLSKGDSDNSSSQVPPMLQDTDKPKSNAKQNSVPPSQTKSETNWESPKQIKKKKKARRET
UniProt Q8BG95: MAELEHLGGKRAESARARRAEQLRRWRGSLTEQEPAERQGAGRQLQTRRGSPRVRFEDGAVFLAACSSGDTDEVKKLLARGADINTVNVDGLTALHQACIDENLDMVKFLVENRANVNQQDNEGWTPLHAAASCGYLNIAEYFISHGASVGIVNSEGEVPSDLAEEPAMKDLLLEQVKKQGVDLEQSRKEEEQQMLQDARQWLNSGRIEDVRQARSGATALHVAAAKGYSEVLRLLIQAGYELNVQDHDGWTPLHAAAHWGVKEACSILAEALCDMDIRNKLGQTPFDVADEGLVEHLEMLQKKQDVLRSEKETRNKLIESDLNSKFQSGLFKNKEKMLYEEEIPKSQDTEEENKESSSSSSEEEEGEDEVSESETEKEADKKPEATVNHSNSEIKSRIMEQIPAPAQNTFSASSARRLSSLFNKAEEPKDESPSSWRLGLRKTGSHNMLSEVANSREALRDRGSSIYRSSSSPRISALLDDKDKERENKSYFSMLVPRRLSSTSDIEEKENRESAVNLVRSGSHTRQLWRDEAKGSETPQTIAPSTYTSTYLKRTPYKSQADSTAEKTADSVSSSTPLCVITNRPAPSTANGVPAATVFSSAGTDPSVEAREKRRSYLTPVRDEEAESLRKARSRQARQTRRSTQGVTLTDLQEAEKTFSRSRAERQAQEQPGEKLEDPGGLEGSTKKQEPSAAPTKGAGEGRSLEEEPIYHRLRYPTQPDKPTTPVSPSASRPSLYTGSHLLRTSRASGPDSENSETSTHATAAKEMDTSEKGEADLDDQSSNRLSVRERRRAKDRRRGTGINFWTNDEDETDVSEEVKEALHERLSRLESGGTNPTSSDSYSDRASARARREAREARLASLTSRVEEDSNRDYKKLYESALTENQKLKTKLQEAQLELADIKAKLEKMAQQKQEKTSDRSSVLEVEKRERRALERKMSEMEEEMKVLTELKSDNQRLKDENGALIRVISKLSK
UniProt Q6PB93: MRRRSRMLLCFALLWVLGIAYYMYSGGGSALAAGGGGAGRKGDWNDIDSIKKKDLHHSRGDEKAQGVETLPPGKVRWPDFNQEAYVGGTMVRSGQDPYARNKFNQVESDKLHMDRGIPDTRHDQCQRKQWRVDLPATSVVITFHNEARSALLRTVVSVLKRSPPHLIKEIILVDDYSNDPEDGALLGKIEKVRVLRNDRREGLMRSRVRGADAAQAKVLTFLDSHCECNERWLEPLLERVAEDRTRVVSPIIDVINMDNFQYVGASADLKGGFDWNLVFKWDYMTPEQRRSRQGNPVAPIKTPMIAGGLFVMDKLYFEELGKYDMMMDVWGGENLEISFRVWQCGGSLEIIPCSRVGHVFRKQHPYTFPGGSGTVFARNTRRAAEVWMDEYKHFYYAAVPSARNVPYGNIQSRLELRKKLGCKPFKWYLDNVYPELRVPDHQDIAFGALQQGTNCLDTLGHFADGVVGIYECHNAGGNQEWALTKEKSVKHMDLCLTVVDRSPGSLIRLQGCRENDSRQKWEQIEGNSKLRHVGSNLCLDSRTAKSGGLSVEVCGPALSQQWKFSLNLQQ
UniProt Q7TMK6: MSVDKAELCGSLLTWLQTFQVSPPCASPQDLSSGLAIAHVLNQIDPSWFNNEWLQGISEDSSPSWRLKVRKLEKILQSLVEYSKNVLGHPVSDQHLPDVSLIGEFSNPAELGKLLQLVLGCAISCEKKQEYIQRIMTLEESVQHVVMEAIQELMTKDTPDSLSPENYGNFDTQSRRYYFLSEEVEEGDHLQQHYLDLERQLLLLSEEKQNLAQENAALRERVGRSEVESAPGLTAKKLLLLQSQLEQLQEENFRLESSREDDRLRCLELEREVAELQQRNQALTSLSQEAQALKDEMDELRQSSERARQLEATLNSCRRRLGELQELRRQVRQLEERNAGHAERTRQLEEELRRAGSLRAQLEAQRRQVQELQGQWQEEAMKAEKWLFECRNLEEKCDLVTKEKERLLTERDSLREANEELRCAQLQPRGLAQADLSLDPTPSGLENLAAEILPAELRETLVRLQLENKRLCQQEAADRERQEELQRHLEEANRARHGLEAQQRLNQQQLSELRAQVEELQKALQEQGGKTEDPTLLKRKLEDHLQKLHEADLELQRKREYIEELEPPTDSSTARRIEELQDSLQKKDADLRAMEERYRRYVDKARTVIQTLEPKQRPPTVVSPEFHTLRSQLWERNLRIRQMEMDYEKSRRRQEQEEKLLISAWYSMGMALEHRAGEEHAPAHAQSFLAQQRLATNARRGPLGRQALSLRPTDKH
UniProt Q6ZQB6: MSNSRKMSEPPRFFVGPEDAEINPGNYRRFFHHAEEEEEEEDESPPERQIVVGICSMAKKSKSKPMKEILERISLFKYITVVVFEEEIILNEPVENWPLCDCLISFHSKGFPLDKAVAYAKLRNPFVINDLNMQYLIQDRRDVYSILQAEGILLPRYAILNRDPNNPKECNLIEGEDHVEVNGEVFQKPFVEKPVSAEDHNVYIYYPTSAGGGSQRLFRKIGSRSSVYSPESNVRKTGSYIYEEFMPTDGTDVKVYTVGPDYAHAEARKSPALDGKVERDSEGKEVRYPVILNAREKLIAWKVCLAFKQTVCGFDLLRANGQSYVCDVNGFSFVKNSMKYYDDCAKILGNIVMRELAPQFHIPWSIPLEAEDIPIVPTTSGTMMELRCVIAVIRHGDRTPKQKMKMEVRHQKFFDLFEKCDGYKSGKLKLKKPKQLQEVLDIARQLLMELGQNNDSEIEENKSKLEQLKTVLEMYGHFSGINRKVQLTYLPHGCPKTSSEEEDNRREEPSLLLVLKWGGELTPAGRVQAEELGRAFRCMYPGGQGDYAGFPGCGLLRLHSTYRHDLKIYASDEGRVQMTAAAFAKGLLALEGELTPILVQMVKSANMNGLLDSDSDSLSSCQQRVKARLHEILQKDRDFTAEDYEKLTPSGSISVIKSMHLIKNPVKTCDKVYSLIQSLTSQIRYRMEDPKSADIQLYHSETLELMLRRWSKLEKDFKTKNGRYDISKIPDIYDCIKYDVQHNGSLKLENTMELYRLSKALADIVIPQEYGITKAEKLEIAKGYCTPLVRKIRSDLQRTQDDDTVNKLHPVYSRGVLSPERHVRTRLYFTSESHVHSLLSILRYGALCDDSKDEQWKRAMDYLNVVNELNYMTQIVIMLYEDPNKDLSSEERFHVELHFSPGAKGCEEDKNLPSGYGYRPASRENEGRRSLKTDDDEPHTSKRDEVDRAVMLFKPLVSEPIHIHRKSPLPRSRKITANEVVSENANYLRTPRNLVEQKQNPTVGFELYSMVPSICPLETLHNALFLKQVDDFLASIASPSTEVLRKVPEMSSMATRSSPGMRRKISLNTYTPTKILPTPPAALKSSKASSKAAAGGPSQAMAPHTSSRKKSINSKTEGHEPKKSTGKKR
UniProt Q6Y7W8: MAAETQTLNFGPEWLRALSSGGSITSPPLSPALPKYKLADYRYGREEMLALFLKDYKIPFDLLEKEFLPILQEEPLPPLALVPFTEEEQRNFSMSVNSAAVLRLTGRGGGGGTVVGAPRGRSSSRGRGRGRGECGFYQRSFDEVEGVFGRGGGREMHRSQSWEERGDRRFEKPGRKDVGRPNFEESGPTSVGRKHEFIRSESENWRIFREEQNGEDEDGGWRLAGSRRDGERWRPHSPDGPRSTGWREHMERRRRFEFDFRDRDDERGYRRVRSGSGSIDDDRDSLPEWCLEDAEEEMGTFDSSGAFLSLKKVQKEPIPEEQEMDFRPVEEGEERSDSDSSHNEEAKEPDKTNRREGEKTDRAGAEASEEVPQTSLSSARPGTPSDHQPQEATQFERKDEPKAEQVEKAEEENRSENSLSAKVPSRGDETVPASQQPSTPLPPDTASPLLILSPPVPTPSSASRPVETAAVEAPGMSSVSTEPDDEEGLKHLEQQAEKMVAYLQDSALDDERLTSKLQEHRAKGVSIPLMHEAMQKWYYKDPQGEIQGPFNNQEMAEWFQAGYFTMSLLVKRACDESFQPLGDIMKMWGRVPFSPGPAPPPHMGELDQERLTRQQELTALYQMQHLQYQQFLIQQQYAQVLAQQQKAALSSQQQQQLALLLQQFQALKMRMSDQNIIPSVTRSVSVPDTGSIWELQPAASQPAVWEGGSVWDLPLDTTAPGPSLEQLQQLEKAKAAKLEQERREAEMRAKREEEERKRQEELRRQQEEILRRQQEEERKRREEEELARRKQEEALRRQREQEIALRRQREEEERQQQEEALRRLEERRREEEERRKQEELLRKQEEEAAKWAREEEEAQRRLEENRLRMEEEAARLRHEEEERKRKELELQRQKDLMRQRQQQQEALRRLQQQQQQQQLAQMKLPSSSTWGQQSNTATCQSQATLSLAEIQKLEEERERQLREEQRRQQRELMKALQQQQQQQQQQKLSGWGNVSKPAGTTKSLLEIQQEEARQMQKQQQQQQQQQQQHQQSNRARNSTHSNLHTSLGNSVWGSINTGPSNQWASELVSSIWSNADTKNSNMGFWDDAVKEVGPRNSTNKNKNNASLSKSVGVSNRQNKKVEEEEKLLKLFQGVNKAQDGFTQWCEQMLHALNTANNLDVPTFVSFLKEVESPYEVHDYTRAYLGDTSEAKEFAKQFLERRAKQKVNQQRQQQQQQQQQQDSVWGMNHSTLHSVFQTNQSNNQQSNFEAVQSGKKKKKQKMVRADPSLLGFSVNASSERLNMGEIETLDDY
UniProt Q7JJ13, whole entry: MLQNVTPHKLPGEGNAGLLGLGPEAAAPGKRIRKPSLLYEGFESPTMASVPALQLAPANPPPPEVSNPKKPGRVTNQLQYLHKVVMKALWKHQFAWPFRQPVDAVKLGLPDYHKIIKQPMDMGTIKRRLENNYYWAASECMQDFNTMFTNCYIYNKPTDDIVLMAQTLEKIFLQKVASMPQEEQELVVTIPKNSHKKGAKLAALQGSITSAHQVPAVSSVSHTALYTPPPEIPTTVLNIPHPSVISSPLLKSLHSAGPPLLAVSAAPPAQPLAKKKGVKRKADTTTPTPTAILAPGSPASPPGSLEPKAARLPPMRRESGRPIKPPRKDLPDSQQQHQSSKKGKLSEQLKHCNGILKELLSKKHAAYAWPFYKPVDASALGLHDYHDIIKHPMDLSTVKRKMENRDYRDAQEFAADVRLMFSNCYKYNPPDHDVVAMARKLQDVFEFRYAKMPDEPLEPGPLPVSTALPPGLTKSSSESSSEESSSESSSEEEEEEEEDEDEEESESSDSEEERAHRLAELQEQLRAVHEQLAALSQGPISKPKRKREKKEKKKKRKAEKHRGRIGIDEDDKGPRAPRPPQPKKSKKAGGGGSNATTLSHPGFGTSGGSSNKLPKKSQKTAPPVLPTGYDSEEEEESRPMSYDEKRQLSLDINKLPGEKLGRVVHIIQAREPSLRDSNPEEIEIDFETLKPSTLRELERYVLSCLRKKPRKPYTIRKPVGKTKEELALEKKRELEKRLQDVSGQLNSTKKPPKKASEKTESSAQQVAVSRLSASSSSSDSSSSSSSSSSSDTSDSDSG

compound: CN[C@@H]1C[C@H]2O[C@@](C)([C@@H]1OC)n1c3ccccc3c3c4c(c5c6ccccc6n2c5c31)C(=O)NC4 [staurosporine]; assay: log2 fold change of pooled soluble protein (PISA), ligand vs vehicle (log2 ratio); higher = more thermally stabilized; settings: ligand concentration: 20 uM; assay format: PISA pool 52.9/55.5/58.6 C

| Target | log2 fold change of pooled soluble protein |
| --- | --- |
| UniProt Q7TQE6 | -0.109 |
| UniProt Q7TMS5 | 0.0747 |
| UniProt Q80U16 | 0.0895 |
| UniProt Q6PGH2 | -0.0445 |
| UniProt Q8BGF9 | 0.121 |
| UniProt Q6TCG2 | -0.0569 |
| UniProt Q80Y14 | 0.335 |
| UniProt Q6Q899 | -0.0808 |
| UniProt Q7TMF3 | 0.0127 |
| UniProt Q7TPD2 | -0.0239 |
| UniProt Q8BGF3 | 0.142 |
| UniProt Q6PB44 | -0.288 |
| UniProt Q80X71 | 0.0534 |
| UniProt Q71KT5 | 0.118 |
| UniProt Q8BG81 | 0.0553 |
| UniProt Q80V03 | 0.0999 |
| UniProt Q80VD1 | 0.143 |
| UniProt Q6ZPJ3 | 0.194 |

| Target | log2 fold change of pooled soluble protein |
| --- | --- |
| UniProt Q80WJ7 | 0.0158 |
| UniProt Q8BG95 | -0.354 |
| UniProt Q78PG9 | -0.0553 |
| UniProt Q6P542 | -0.0917 |
| UniProt Q6PB93 | 0.171 |
| UniProt Q7TMK6 | -0.219 |
| UniProt Q8BFY9 | -0.0422 |
| UniProt Q6XVG2 | -0.00808 |
| UniProt Q6PAJ1 | -0.0936 |
| UniProt Q8BGL3 | -0.211 |
| UniProt Q6PDG5 | -0.1 |
| UniProt Q8BFZ3 | -0.476 |
| UniProt Q6ZQB6 | 0.203 |
| UniProt Q7TNE1 | -0.195 |
| UniProt Q6P9R2 | 0.179 |
| UniProt Q6Y7W8 | -0.198 |
| UniProt Q7JJ13 | -0.0508 |
| UniProt Q810A7 | 0.122 |

Some of the entries so far, as tab-separated lines.
Target	log2 fold change of pooled soluble protein
UniProt Q78PG9	-0.0553
UniProt Q8BFY9	-0.0422
UniProt Q6PAJ1	-0.0936
UniProt Q8BGL3	-0.211
UniProt Q6ZQB6	0.203
UniProt Q6P9R2	0.179
UniProt Q6Y7W8	-0.198
